According to patent US20260159536A1, “AKR1C3-ACTIVATED DNA ALKYLATING AGENT, AND MEDICAL APPLICATION THEREOF” (ASCENTAWITS PHARMACEUTICALS, LTD., priority 2021, published 2026):
At least one compound was matched to its structure with a doubt left.

Assay: Blood-brain barrier assay of Compound AST-2870 (plasma and brain concentration, PK)
Format: in vivo, CD-1 mice
Details: brain tissues; 10 mg/kg intraperitoneal injection; Mean
Description: Three CD-1 mice were administered 10 mg/kg of test Compound AST-2870 by intraperitoneal injection at each time point. Blood and brain tissues were taken at 5 min, 15 min, 30 min, 1 h, 1.5 h, and 2 h after administration, and the concentration of the test substance in the samples was determined by LC/MS method. The corresponding results of the concentrations of Compound AST-2870 in blood and brain tissue versus time were made into a curve graph, as shown in FIG. 37. The corresponding test results of the ratio of the concentration of the Compound AST-2870 in brain tissue and blood versus time were made into a curve graph, as shown in FIG. 38.

Q: For `CC(OP(=O)(N1CC1)N1CC1)c1ccc([N+](=O)[O-])c(Oc2cccc(C(=O)N(C)C)c2)c1` (stereo not shown) [AST-2870], which Cmax is on record?
A: 88.7 ng/g
